Measured values: PubChem BioAssay AID2685 (National Center for Advancing Translational Sciences (NCATS), 2010)
The list shows a part of the results. The main result of the screen is listed elsewhere. These columns were measured beside it and carry no call. Compounds called inactive in the main read-out are mostly missing here. Words in brackets tell the shape of the fitted curve; partial curves, single points and poor fits give uncertain potencies.

Assay: qHTS Assay for Lipid Storage Modulators in Drosophila S3 Cells;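 for cell number change: cells counted by Cell Tracker Red CMTPX staining in the red channel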
Conditions: BODIPY lipid droplet fluorescence, 18-24 h; for cell number change: measured here: cell count max response, cells fed with added oleic acid
Summary of the method: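 Drosophila S3 cells got compounds at several concentrations plus oleic acid (400 uM solution). Laser-scanning cytometry with 488 nm excitation read lipid droplets at 500-530 nm and cells at 575-640 nm. Percent activity was relative to 20 uM Triacsin C.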

[1] = measured here: cell number channel AC50, cells fed with added oleic acid
[2] = measured here: lipid fluorescence (Fed channel) AC50, cells fed with added oleic acid

| SMILES | cell number change [%] | AC50 [1] | AC50 [2] |
| --- | --- | --- | --- |
| Cc1cc(NC(=O)Nc2cccc(C(F)(F)F)c2)no1 | -34.8 | 16.4 µM [falling, single point] |  |
| COc1cc(OC)cc(C(=O)N[C@H](C(=O)Nc2nc3ccccc3[nH]2)C(C)C)c1 | 67.1 | 18.4 µM [rising, single point] | 29.1 µM [rising, partial curve] |
| CCCCC(=O)Nc1cc(Cl)ccc1C(=O)O | 154 |  |  |
| O=C(CSc1ncn[nH]1)Nc1ccc2c(c1)CCC2 | 9.04 |  | 6.51 µM [rising, partial curve, poor fit] |
| CCn1c(Cl)c(C=O)s/c1=N\S(=O)(=O)c1ccccc1 | -53.5 | 3.66 µM [falling, full curve] | 5.17 µM [falling, full curve] |
| Cc1ccc(C)c(CSc2ncccc2C(=O)O)c1 | 1.79 |  | 6.51 µM [rising, single point] |
| O=C(CC(c1ccccc1)c1ccccc1)NCCO | -3.3 |  | 23.1 µM [falling, partial curve] |
| COc1ccc(NC(=O)Cn2c(=O)sc3ccccc32)cc1 | -0.397 |  | 8.2 µM [rising, partial curve, poor fit] |
| CC(=O)c1c(C)[nH]c(C(=O)Nc2cccnc2)c1C | -0.883 |  | 0.651 µM [falling, full curve] |
| CCC(C)N(C(=O)COC(=O)CSc1ccc([N+](=O)[O-])cc1)C1CCS(=O)(=O)C1 (stereo unspecified) | -9.35 |  | 6.51 µM [rising, single point] |
| Cc1cc(C)c2nc(SCC(=O)Nc3cc(C)on3)c(C)cc2c1 | 12.4 |  | 0.206 µM [rising, single point] |
| CC(C)Cc1nc2oc3c(=O)[nH]cnc3c2c2c1CCC2 | -3.51 |  |  |
| Fc1ccc(-c2ccnc3nc(N4CCN(c5ccccc5)CC4)nn23)cc1 | -20.6 |  | 23.1 µM [falling, single point] |
| N/C(=N\c1nc2c(c(=O)[nH]1)CCC2)Nc1cccc(Cl)c1 | -21.3 |  | 1.84 µM [rising, partial curve] |
| O=C(CN1C(=O)c2ccccc2S1(=O)=O)c1ccccc1Cl | -31.9 | 23.1 µM [falling, single point] |  |
| CC(=O)N1N=C(c2ccccc2O)OC1(C)CC(=O)Nc1ccccc1 (stereo unspecified) |  |  | 29.1 µM [rising, single point] |
| CS(=O)(=O)c1nc(-c2ccco2)cc(C(F)(F)F)n1 | -92.6 | 16.4 µM [falling, partial curve] | 16.4 µM [falling, partial curve] |
| CCCCN1C(=O)/C(=C/C=C2\Oc3ccccc3N2CC)SC1=S | -18 | 2.59 µM [falling, single point] | 3.66 µM [falling, full curve] |
| O=C(Nc1ccccc1[N+](=O)[O-])C1=C(O)CCn2c1nc1ccccc12 | 66.7 | 23.1 µM [rising, single point] | 5.8 µM [rising, full curve] |
| COc1ccc2nc(Cl)c(/C=N/Nc3ccccn3)cc2c1 | -34 | 23.1 µM [falling, single point] |  |

| SMILES | cell number change [%] | AC50 [1] | AC50 [2] |
| --- | --- | --- | --- |
| O=C(OCCN1CCCC1=O)c1cncc(Br)c1 | 25.4 |  | 0.00731 µM [rising, full curve, poor fit] |
| CCc1nc(-c2ccc(C)nc2OC)no1 | 15.8 |  |  |
| O=C1CNC(=S)N1C1CCCCCC1 | 35.5 | 13 µM [rising, partial curve, poor fit] |  |
| O=C(CN1C(=O)/C(=C/c2ccco2)SC1=S)NC1CCS(=O)(=O)C1 (stereo unspecified) | 42.2 | 0.0206 µM [rising, full curve, poor fit] | 8.2 µM [rising, partial curve] |
| Cc1ccc(C(=O)O/N=C2\CC3CCC2(C)C3(C)C)cc1 (stereo unspecified) | -35.1 | 29.1 µM [falling, single point] | 29.1 µM [falling, single point] |
| C/C(CC(=O)Nc1cccc(C(F)(F)F)c1)=N\NC(=O)C1CCCCC1 | -4.02 | 6.51 µM [falling, partial curve, poor fit] |  |
| O=C(/C=C/c1ccccc1)NC(=S)Nc1ccc(CN2CCOCC2)cc1 | 2.22 |  | 16.4 µM [rising, partial curve, poor fit] |
| Cc1cccc(NC(=O)Nc2ccc(C)cc2Br)c1 | -38.2 | 16.4 µM [falling, single point] |  |
| C=CCSc1nnc(CCc2ccccc2)n1N | -4.18 |  | 1.84 µM [falling, single point] |
| Fc1ccccc1CSc1nnc(-c2cccs2)o1 | 102 | 18.4 µM [rising, partial curve] | 18.4 µM [rising, single point] |
| CCSC1=N/C(=C\c2ccc(OC)cc2)C(=O)N1 | 23.6 | 0.366 µM [rising, partial curve, poor fit] |  |
| CCN(CC)S(=O)(=O)c1ccc(N2CCCC2)c(NC(=O)c2c(-c3ccccc3)noc2C)c1 | 14.1 |  | 5.17 µM [falling, single point] |
| NC(=Nc1ccc(Cl)cc1)c1ccccc1 | -49.9 | 8.2 µM [falling, partial curve] |  |
| Cc1cccc(NC(=O)C2CC(=O)n3cnnc3S2)c1 (stereo unspecified) |  |  | 11.6 µM [falling, partial curve] |
| N#CC1=C(SCC(=O)Nc2cccc3cccnc23)NC(=O)C(C#N)C12CCCCC2 (stereo unspecified) | -22.6 |  | 0.366 µM [rising, full curve, poor fit] |
| O=C(NCC(c1ccco1)N1CCCCC1)c1ccc(NS(=O)(=O)c2ccc(F)cc2)cc1 (stereo unspecified) | -1.11 |  | 4.61 µM [falling, partial curve, poor fit] |
| O=C(NCc1cccc(F)c1)C1CCC(=O)N(C2CCCC2)C1 (stereo unspecified) |  |  | 2.31 µM [rising, partial curve] |
| COc1ccc(C2CC(c3cccs3)=NN2C(=O)CSc2nc(=O)n3ccc(C)cc3n2)cc1 (stereo unspecified) | 39.8 | 1.03 µM [rising, full curve] |  |
| CC(C)(C)CC(=O)Nc1ccccc1N1CCN(c2ccc(F)cc2)CC1 | -5.28 |  |  |
| Cc1cccc(OCCN2C(=O)c3ccccc3C2=O)c1 | 27.3 |  | 10 µM [rising, partial curve, poor fit] |

Looked up above:
AC50 [2], N/C(=N\c1nc2c(c(=O)[nH]1)CCC2)Nc1cccc(Cl)c1 is entered as 1.84 µM [rising, partial curve]
AC50 [1], O=C(Nc1ccccc1[N+](=O)[O-])C1=C(O)CCn2c1nc1ccccc12 is entered as 23.1 µM [rising, single point]

Further records follow:

| SMILES | cell number change [%] | AC50 [1] | AC50 [2] |
| --- | --- | --- | --- |
| O=C(COc1ccccc1)Nc1ccccc1F | 9.12 |  |  |
| CCN(CC)C(=O)C1=C(C)Nc2nnnn2C1c1cccnc1 (stereo unspecified) | -10.1 |  | 0.58 µM [falling, full curve, poor fit] |
| COc1cc(C2C(C(=O)c3cccs3)=C(O)C(=O)N2c2cc(C)on2)ccc1O (stereo unspecified) | 6.44 |  | 0.164 µM [falling, full curve] |
| O=C(OCc1cccc([N+](=O)[O-])c1)c1ccc2ccccc2n1 | 7.46 | 5.17 µM [falling, single point] | 0.326 µM [falling, full curve, poor fit] |
| Cc1ccc(-n2c(O)c(/C=N/NC(=O)C3COc4ccccc4O3)c3ccccc3c2=O)cc1 (stereo unspecified) | -3.43 |  |  |
| CCc1nnc(NC(=O)c2ccc(Br)c(S(=O)(=O)N3CCOCC3)c2)s1 | -15.3 |  | 29.1 µM [rising, partial curve] |
| O=C(Nc1cc(Br)ccc1O)c1cc(-c2ccco2)on1 | 39.2 | 29.1 µM [rising, partial curve, poor fit] | 16.4 µM [rising, partial curve, poor fit] |
| CO/N=C/CC(=O)c1ccc(OC)cc1 | 9.74 |  | 4.11 µM [falling, single point] |
| Cc1cc(C)c(C(=O)NC2CC(C)(C)Cc3c2cnn3-c2cccc(F)c2)[nH]1 (stereo unspecified) | -30.9 | 20.6 µM [falling, single point] |  |
| COC(=O)[C@H](CCSC)NC(=O)Nc1ccc(C)c(C)c1 |  |  | 0.116 µM [falling, single point] |
| CN1CC2([N+](=O)[O-])CC=C(OCCO)C([N+](=O)[O-])(C1)C2 (stereo unspecified) | 2.51 |  | 7.31 µM [falling, partial curve, poor fit] |
| Cc1cccc(NC(=S)NNC(=S)NCc2ccccc2)c1 | 97.9 | 29.1 µM [rising, single point] |  |
| Cc1cccc(-n2ccc(=O)c(C(=O)Nc3ccc(S(=O)(=O)Nc4onc(C)c4C)cc3)n2)c1 | 8.58 |  | 29.1 µM [rising, single point] |
| CN1/C(=C/C(=O)c2cccs2)Sc2ccccc21 | 113 | 10.3 µM [rising, partial curve] | 11.6 µM [rising, partial curve] |
| O=C(O)C1CCN(S(=O)(=O)N2CCOCC2)CC1 | -1.63 |  | 0.103 µM [falling, full curve, poor fit] |
| Cc1cccc(NC(=O)c2cc(=O)n(Cc3ccccc3)c(=O)[nH]2)c1 | -29.6 |  | 16.4 µM [falling, single point] |
| CCN(CC)CCN1C(=O)c2ccccc2NC1c1ccc(F)cc1 (stereo unspecified) | -19.2 |  | 7.31 µM [rising, single point] |
| Cc1ccc(OCCN(C)C(=O)c2cc(COc3ccc(F)cc3F)on2)cc1 | -16.6 |  |  |
| COc1cccc(-c2cc(C(=O)N3CC4(C)CC3CC(C)(C)C4)no2)c1 (stereo unspecified) | -38 | 29.1 µM [falling, single point] | 29.1 µM [falling, single point] |
| Cc1ccc(-c2cc(C(=O)NCC3CCCO3)no2)cc1 (stereo unspecified) | 13 |  | 7.31 µM [rising, partial curve] |
